# Data reported in PubChem BioAssay AID493014 (National Center for Advancing Translational Sciences (NCATS), 2011).
# The campaign covered roughly 340,000 compounds. About 170 (0.05%) were called active. This list was built around the results that the source calls inconclusive (neither active nor inactive); the mix of calls is not that of the screen. Calls follow the shape of the dose curve; as a rule, active = well fitted inhibition curve with a large enough effect in the signal ratio, with a control signal flat (not every such curve was filed as active); inconclusive = small, poorly fitted or top-dose-only effect, or effect the other way, or a change in a side signal; inactive = flat fitted curve, though single readings scatter; the % refers to the signal ratio. Potencies of inconclusive entries are doubtful fits and often do not repeat.
# Experiment: qHTS Assay to Find Inhibitors of Chronic Active B-Cell Receptor Signaling;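 as to activity change, negative = inhibition: plate controls were basal doxycycline-induced cells for no effect and cells given 10 µM MG132 for full effect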
# Settings: ABC-DLBCL IkBa-CBG/CBR reporter, luminescence ratio (green luciferase fused to IkBa over red control in TMD8 lymphoma cells), 4 h; activity change, negative = inhibition: at 46.1 µM (top of the series) unless noted
# Procedure, shortened: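 Compounds up to 46 uM were incubated four hours with TMD8 cells whose green CBG68 luciferase is fused to IkappaBalpha; red CBR luminescence normalised the signal, and concentration-effect curves were fitted to fusion, red and ratio data.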
# Potency is read from the fitted curve at half-maximal effect.
Compound,"activity change, negative = inhibition",Potency
CCCCC/C=C/C1=CC(=O)C[C@H](c2ccc3c(c2)OCO3)C1,inconclusive: 15%,
Cc1cc(Cl)c(S(=O)(=O)N2CCCC2)cc1OCC(=O)NC1CCCCC1,inactive: -3.25%,
C/C(CC(=O)Nc1ccccn1)=N\NC(=O)c1cnccn1,,"inconclusive: 35.5 µM [falling, single point]"
O=S(=O)(c1ccc(F)cc1)c1nc(-c2ccccc2F)oc1N1CCCCC1,inconclusive: 5.38%,
O=C(O)CCN=C1CCc2ccccc2N1,inconclusive: -27%,
CCc1nnc(NC(=O)c2cccnc2SC)s1,inconclusive: 5.73%,
O=C(Nc1ccc(Cl)cc1)Nc1csc([N+](=O)[O-])c1,inconclusive: 10.6%,
Cc1cccc(C)c1NC(=O)CNC(=O)c1ccccc1OCc1ccccc1,inconclusive: 2.48%,
Cc1cccc(N2CCN(S(=O)(=O)c3c(C)[nH]c(=O)[nH]c3=O)CC2)c1C,inconclusive: 11.6%,
Brc1csc2ncccc12,inconclusive: 5.59%,
COCCn1c(C)cc(C(=O)CSc2nc3ccccc3s2)c1C,inconclusive: 1.89%,
O=C(CCc1nc2ccccc2c(=O)[nH]1)Nc1cc(Cl)ccc1N1CCCCC1,inconclusive: -9.65%,
COc1ccc(N2CCN(C(CNS(=O)(=O)c3c(C)cc(C)cc3C)c3ccco3)CC2)cc1 (stereo not given),inactive: 12%,
CN1Cc2c(N3CCOCC3)nc3sc(C(=O)c4ccc(Br)cc4)c(N)c3c2CC1(C)C,inconclusive: 12.9%,
COc1ccccc1N=C(C)C1=C(O)CC(c2ccccc2)CC1=O (stereo not given),inconclusive: -18.4%,
COC(=O)c1ccc(N=Nc2ccccc2)cc1,,"inconclusive: 11.2 µM [rising, single point]"
O=C(O)Cc1c(C(=O)O)[nH]c2ccc(C(=O)O)cc12,,"inconclusive: 35.5 µM [falling, single point]"
CN(C)CCNC(=O)C1CC(=O)N(c2ccc(F)c(Cl)c2)C1 (stereo not given),inconclusive: 1.52%,
CCCOc1ccc(/C=C/C(=O)Nc2ccc([N+](=O)[O-])cc2)cc1,inactive: 5%,
Cc1ccc(NS(=O)(=O)c2ccc(NC(=O)c3cccs3)cc2)c(C)c1,inconclusive: -8.46%,
CCN(CC)CCN(Cc1cc2ccc(C)cc2[nH]c1=O)C(=S)Nc1ccccc1C(=O)OC,,"inconclusive: 0.0891 µM [falling, full curve, poor fit]"
Brc1ccc2nc(-c3ccncc3)c(NC3CCCC3)n2c1,,"inconclusive: 2.24 µM [rising, full curve, poor fit]"
CSc1n[nH]c2nc3c(c(=O)n12)C1(CCCC1)Cc1ccccc1-3,inconclusive: 5.32%,
O=S(=O)(c1cccc(NC(=S)N2CCN(c3ccccc3F)CC2)c1)C(F)F,inconclusive: -0.385%,
COc1cc(/C=N/Nc2nc3ccccc3[nH]c2=O)ccc1O,,"inconclusive: 31.6 µM [rising, single point]"
CCOC(=O)C1=C(Cc2ccc(Cl)cc2)C(=O)c2ccccc2C1=O,,"inconclusive: 16.4 µM [falling, single point]"
COc1ccc([N+](=O)[O-])cc1NC(=O)C1C2C=CC(C2)C1C(=O)O (stereo not given),inactive: 0.608%,

Compound,"activity change, negative = inhibition",Potency
O=C(Nc1ccc(-c2nc3ncccc3o2)cc1)c1ccc([N+](=O)[O-])o1,,"inconclusive: 35.5 µM [falling, partial curve, poor fit]"
Cc1ccc(NC(=O)Cc2nc(COC(=O)C(C)NS(=O)(=O)c3ccc(C)cc3)cs2)cc1 (stereo not given),inconclusive: 3.39%,
O=C(CNC(=O)c1ccco1)OCc1ccccc1Cl,inconclusive: 10.5%,
COC(=O)COc1ccc(S(=O)(=O)NCc2cccnc2)cc1C,inconclusive: 17.7%,
c1ccc(-c2nc3ccccc3s2)nc1,inactive,
COc1ccc2c(c1)c(CC(=O)Nc1ccccc1OC)c(C)n2C(=O)c1ccc(Cl)cc1,,"inconclusive: 14.6 µM [falling, partial curve]"
O=C(CNC(=O)c1cccs1)OCc1ccc(Br)cc1,inconclusive: -5.98%,
CCCC(NC(=O)CCc1c(C)c2cc3c4c(oc3c(C)c2oc1=O)CCCC4)C(=O)O (stereo not given),,"inconclusive: 17.8 µM [falling, partial curve, poor fit]"
CN(C(=O)Nc1ccc(Cl)cc1)n1cnc2ccccc2c1=O,inconclusive: 20.5%,
CCOc1cc(C(=O)Nc2cc(C)ccn2)cc(OCC)c1OCC,inconclusive: 3.82%,
COc1cccc(S(=O)(=O)NCc2ccc(C(=O)Nc3cccc(Cl)c3)cc2)c1,inconclusive: -29.9%,
C/C(=N\Nc1ccc(Cl)c(C(=O)O)c1)c1ccccn1,,"inconclusive: 35.5 µM [rising, single point]"
O=C(CNc1cccc(S(=O)(=O)N2CCCCC2)c1)Nc1cccc(F)c1,inactive: 10%,
Cc1c([N+](=O)[O-])ccc(S(=O)(=O)N2CCC(C(N)=O)CC2)c1C,inconclusive: -3.29%,
CCc1ccc2oc(=O)cc(CN3CCCCC3C)c2c1 (stereo not given),,"inconclusive: 35.5 µM [falling, partial curve, poor fit]"
COc1ccc(NC(=S)NCCc2ccccc2)c(OC)c1,inconclusive: 17.5%,
COc1ccc2c(=O)c3c(=O)n(-c4ccc(C)cc4)c(-c4ccccc4)nc3oc2c1,,"inconclusive: 20 µM [falling, partial curve]"
COc1ccc(CNC(=O)CN(C(=O)CCC(=O)Nc2nccs2)c2ccccc2C)cc1,inconclusive: 0.653%,
Cc1ccc(OCCNC(=O)c2cccc(S(=O)(=O)NCc3ccccc3)c2)cc1,,"inconclusive: 16.4 µM [falling, partial curve]"
COC(=O)C(=C/C(C)=C/c1cccnc1)C(=O)OC,inconclusive: -12.1%,
CCc1ncc(/C=C2\C(=O)Nc3ccccc32)[nH]1,inconclusive: -3.17%,
Cc1ccsc1/C=C(\CC(=O)O)c1nc2ccccc2o1,inconclusive: 0.0428%,
O=C(N/N=C/c1ccncc1)c1cc([N+](=O)[O-])cc([N+](=O)[O-])c1O,inconclusive: 401%,
Cc1cc(C)c(NC(=O)COC(=O)Cc2cccs2)c(C)c1,inactive: 1.5%,
Cc1cc(NC(=O)C2CC(c3ccc(F)cc3)=NO2)n(-c2ccccc2)n1 (stereo not given),,"inconclusive: 5.8 µM [rising, partial curve, poor fit]"
Cc1cc(F)ccc1NC(=O)CCc1c(C)nn(-c2ccc(N3CCCCC3)nn2)c1C,,"inconclusive: 10 µM [falling, partial curve]"
CC1(C)OC(=O)C(=CNc2ccccc2)C(=O)O1,inconclusive: 0.513%,

Compound,"activity change, negative = inhibition",Potency
O=C(CN1C(=O)C2CCCCC2C1=O)Nc1nc(-c2ccc(F)cc2)cs1 (stereo not given),,"inconclusive: 7.31 µM [rising, partial curve, poor fit]"
N/C(=N\OC(=O)c1ccc(Cl)cc1)c1ccc(Cl)cc1,inconclusive: 10.1%,
CCn1cc(NC(=O)CCl)c(C)n1,,"inconclusive: 35.5 µM [falling, single point]"
O=C(NC(=S)Nc1cccc2ncccc12)c1ccccc1,inconclusive: 3.88%,
O=C(NC1=NCCS1)c1cc(-c2ccc(F)cc2)nc2ccccc12,inconclusive: 11.3%,
Cc1nc2ccc(S(=O)(=O)NCC(=O)N3CCCCC3)cc2s1,inconclusive: 14.1%,
CC(C)Nc1cc(C(C)(C)C)nc2c(-c3ccccc3)cnn12,inconclusive: 20.2%,
O=C1C=C(Nc2ccc(Cl)cc2Cl)CC(c2ccco2)C1 (stereo not given),,active: 12.6 µM
CCOC(=O)Nc1cccc(OCC(=O)Nc2ccccc2OC)c1,inactive: -6.07%,
COc1cc(NC(=O)C2CC(c3cccc(Br)c3)=NO2)cc(OC)c1OC (stereo not given),,"inconclusive: 14.1 µM [falling, partial curve]"
O=C(NCCCn1ccnc1)C(=O)NCc1ccc(Cl)cc1,,"inconclusive: 11.6 µM [rising, partial curve, poor fit]"
COc1ccc(-n2c(SC3CCOC3=O)nc3ccccc3c2=O)cc1OC (stereo not given),inactive: 1.65%,
C/C(=N/NC(=O)c1cccs1)c1c(C)[nH]n(-c2nc3ccccc3s2)c1=O,,"inconclusive: 25.9 µM [rising, single point]"
NC(=O)CC(NC(=O)c1ccccc1)c1ccc(NCCOc2ccccc2)c([N+](=O)[O-])c1 (stereo not given),inconclusive: -10.8%,
CCOc1cccc(-c2cc(-c3n[nH]c(=S)n3CC)c3ccccc3n2)c1,inconclusive: 0.605%,
CCCc1cc(C(=O)Nc2ccc(C(=O)c3ccc(F)cc3)cc2)n(C)n1,inactive: -3.72%,
CCc1ccc(NC(=O)/C(C#N)=C/c2cc3ccc(C)cc3nc2N2CCOCC2)cc1,inactive: 4.6%,
O=C(CSc1nnc(-c2ccco2)o1)N1CCN(c2ccccc2)CC1,inactive: 0.653%,
Cn1c(=O)[nH]c(=O)c2c1nc(CN1CCN(c3cccc(Cl)c3)CC1)n2CCc1ccccc1,inconclusive: -1.81%,
Fc1ccc(-n2ncc3c(Nc4ccc(Oc5ccc(Cl)cc5)cc4)ncnc32)cc1,inactive: 2.32%,
C=CCn1c(O)c(N=NC(=O)c2cccnc2)c2cc(Br)ccc21,,"inconclusive: 0.398 µM [falling, full curve]"
Cc1cc(C)n(CC(=O)NNC(=O)COc2ccc(Br)cc2F)n1,inactive: -0.561%,
C=CCNC(=S)NNC(=O)c1ccc(OCCC)cc1,,"inconclusive: 2.06 µM [falling, partial curve, poor fit]"
CCCc1cc(=O)oc2cc(C)cc(OC(=O)c3ccco3)c12,inconclusive: 1.37%,
CCCCn1c(-c2csc3c2CCCC3)n[nH]c1=S,inconclusive: 17.8%,
CCCOc1ccc(C2C(C(=O)c3ccco3)=C(O)C(=O)N2CCCn2ccnc2)cc1 (stereo not given),inconclusive: -14.4%,

# Single records, as listed above.
# COc1cc(NC(=O)C2CC(c3cccc(Br)c3)=NO2)cc(OC)c1OC (stereo not given) is listed with Potency: inconclusive: 14.1 µM [falling, partial curve]
# CCOc1cccc(-c2cc(-c3n[nH]c(=S)n3CC)c3ccccc3n2)c1 is listed with activity change, negative = inhibition: inconclusive: 0.605%
# C=CCNC(=S)NNC(=O)c1ccc(OCCC)cc1 is listed with Potency: inconclusive: 2.06 µM [falling, partial curve, poor fit]
# CC(C)Nc1cc(C(C)(C)C)nc2c(-c3ccccc3)cnn12 is listed with activity change, negative = inhibition: inconclusive: 20.2%
